# Primary screen of a compound library

Source: ChEMBL document CHEMBL3988442, “University of Dundee, Small-Polar-MMV Screening Library” (2021).

Mtb cholesterol medium: 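Growth of Mycobacterium tuberculosis over 4 days (cholesterol / DPPC medium with tyloxapol); the read-out is not stated. Tested at 50 µM. Direction is inferred from retests: higher values go with more growth inhibition. About 69,000 compounds were tested under these conditions; 0.54% (about 370) showed 50% or more at least once.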
Mtb glucose medium: 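Whole-cell growth test on Mycobacterium tuberculosis, read after 3 days in glucose-containing 7H9 medium; the read-out is not stated. Concentration: 50 µM. Higher reads as more growth inhibition (inferred: compounds with an IC50 in retests scored well above the rest). Of about 69,000 compounds tested this way, about 760 (1.1%) reached 50% or more in at least one test.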

Values are the deposited “Percent Effect”, in %.
How 0% and 100% were set is not recorded. Most values in the screen are low, and negative values occur.
Compounds were drawn at random from those tested, without regard to their results.
Two or more numbers in one place are separate tests of the same structure; such repeats can differ widely.

CCn1cnnc1CNC(=O)c1ccc(Br)cc1F read Mtb cholesterol medium: -12.73%; Mtb glucose medium: -3.551% and -37.34%.
COc1cc(OC)cc(C2CCN(CC(=O)NCC(F)(F)F)C2)c1 (centres unmarked) read Mtb cholesterol medium: 5.154%; Mtb glucose medium: 5.599%.
O=C(O)C(F)(F)F.[H][C@]12CN(c3ccccn3)C[C@@]1(C(=O)N(C)C)CCCN(S(=O)(=O)CC)C2 read Mtb cholesterol medium: 16.5%; Mtb glucose medium: 22%.
Cc1cc(CN2CCc3nn(C(C)C)c(=O)cc3C2)no1 read Mtb cholesterol medium: 1.23% and -10.94%; Mtb glucose medium: -23.51%.
CN1CCN(c2cnn(Cc3ccc(S(C)(=O)=O)cc3)c(=O)c2)CC1 read Mtb cholesterol medium: 11.95%; Mtb glucose medium: 4.352% and 5.27%.
O=C1CC2(CCCCC2)C(=O)N1CC(O)COCc1ccccc1F (centres unmarked) read Mtb cholesterol medium: -12.16%; Mtb glucose medium: -3.472%.
Cc1cnc(N2CCn3cc(CNC(=O)CC4CC4)nc3C2)nc1 read Mtb cholesterol medium: -24.49%; Mtb glucose medium: -0.3532%.
CC(C)N(C)Cc1cnc2n1CCN(Cc1ccsc1)C2.O=C(O)C(F)(F)F.O=C(O)C(F)(F)F read Mtb cholesterol medium: 2.239%; Mtb glucose medium: 10.29%.
COc1c(F)cc(-c2cn(CCn3c(C)cc(C)nc3=O)nn2)cc1Cl read Mtb cholesterol medium: -12.82%; Mtb glucose medium: -44.38%.
COCCn1ccnc1C1CCN(Cc2ccccc2C#N)CC1 read Mtb cholesterol medium: 9.846%; Mtb glucose medium: 11.37% and -3.059%.
Cc1csc(NC(=O)C2(C)CCCO2)n1 (centres unmarked) read Mtb cholesterol medium: 1.304%; Mtb glucose medium: 16.65% and 12.83%.
CO[C@H]1CN(Cc2ccc(F)c(F)c2)C[C@@]12CCCO2 read Mtb cholesterol medium: 6.864%; Mtb glucose medium: -9.679%.
CCC(=O)N1CCC2(CC1)CN(CCO)Cc1ccccc12.O=C(O)C(F)(F)F read Mtb cholesterol medium: -26.83%; Mtb glucose medium: -15.65%.
Cl.O=C(NCc1ccc(Cl)cc1)N1CCN(CC(O)C2CC2)CC1 (centres unmarked) read Mtb cholesterol medium: -4.767%; Mtb glucose medium: 1.778%.
O=C(Nc1cccc(CNCc2cccnc2)c1)C1CCCC1 read Mtb cholesterol medium: -11.92%; Mtb glucose medium: -16.04%.
O=C(c1cnccn1)N1CCCC(C2=Nc3ccccc3S(=O)(=O)N2)C1 (centres unmarked) read Mtb cholesterol medium: -0.9719% and -1.903%; Mtb glucose medium: -22.33%.
[H][C@@]12C[C@@H](c3nnc(C4CC4)o3)O[C@]1([H])CN(C(=O)Cc1ccsc1)C2 read Mtb cholesterol medium: 1.397%; Mtb glucose medium: 16.32% and -4.769%.
Cc1ccc(C)c(C(NC(=O)C(C)(C)C)c2cccnc2)c1 (centres unmarked) read Mtb cholesterol medium: -5.647%; Mtb glucose medium: 5.424%.
CCOc1ncccc1Cn1cc(-c2nccn2C)nn1 read Mtb cholesterol medium: 0.2075%; Mtb glucose medium: 7.812%.
[H][C@]12CC[C@]([H])(CN(C(=O)N(C)C)C1)N(Cc1nnc(-c3ccco3)o1)C2 read Mtb cholesterol medium: -18.25%; Mtb glucose medium: -32.32%.
O=C(NCc1cc(F)cc(Br)c1)C1(O)CCSCC1 read Mtb cholesterol medium: 18.18%; Mtb glucose medium: 27.07%.
CC(C)CC(NC(=O)c1cnn(C)c1)C(=O)Nc1cc[nH]n1 (centres unmarked) read Mtb cholesterol medium: -0.5111%; Mtb glucose medium: -12.2%.
CCN(CC)CCCNC(=O)Nc1c(C)cccc1C(C)C read Mtb cholesterol medium: -15.94%; Mtb glucose medium: -10.06%.
O=C(c1ccc(=O)[nH]c1)N1CCCC1c1nc2cc(F)ccc2[nH]1 (centres unmarked) read Mtb cholesterol medium: 3.441%; Mtb glucose medium: -0.545%.
CNS(=O)(=O)c1cccc(CNC(=O)c2cc(C)no2)c1 read Mtb cholesterol medium: -3.779%; Mtb glucose medium: -10.2%.
CC1CCN(CCCNC(=O)NC(C)c2nncn2C)CC1 (centres unmarked) read Mtb cholesterol medium: 2.966%; Mtb glucose medium: -3.833% and -25.64%.
N#Cc1ccc(NCC(=O)Nc2ncn(Cc3cccnc3)n2)cc1 read Mtb cholesterol medium: -21.39%; Mtb glucose medium: -43.92%.
CCOc1ccc(C(=O)N2CCCC2Cn2cc(C)cn2)cn1 (centres unmarked) read Mtb cholesterol medium: -7.113%; Mtb glucose medium: 3.626%.

Some entries from above, unchanged:

compound,Mtb cholesterol medium,Mtb glucose medium
Cl.O=C(NCc1ccc(Cl)cc1)N1CCN(CC(O)C2CC2)CC1 (centres unmarked),-4.767%,1.778%
CC1CCN(CCCNC(=O)NC(C)c2nncn2C)CC1 (centres unmarked),2.966%,-3.833% and -25.64%